PubChem BioAssay AID1259405, NCATS – 2018

Test: 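Knock-downs that lift recombinant protein yield in hamster ovary cells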 (primary screen)
Cells: Chinese hamster CHO-K1 ovary cells with stable secreted eGFP expression
Reagent: single siRNA against mouse genes, 0.8 pmol siRNA per well (2 µl of 400 nM stock)
Duration: 3 days
Detection: 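Percent of the per-plate non-targeting control median for intracellular GFP per well by laser scanning cytometry and for cell viability by ATP luminescence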
Scale: GFP, % of control: higher = more GFP per well, higher productivity; viability (ATP), % of control: higher = more viable cells (more ATP)
Hit rule: 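a knock-down is called active if GFP reaches 120% or more of non-targeting control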
Here is a random part of about 50,000 reagents tested. About 4,000 of all reagents (8%) count as active. 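Mouse siRNA library applied to hamster cells; one well for each siRNA.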 Reagents against one gene are numbered here.

target	reagent no.	GFP, % of control	viability (ATP), % of control	Call
Asf1b (GeneID 66929)	1	175	117	active
Asf1b (GeneID 66929)	2	89.6	74	inactive
Asf1b (GeneID 66929)	3	43.9	66.1	inactive
Nckap5 (GeneID 210356)	1	91.6	95.3	inactive
Nckap5 (GeneID 210356)	2	70.4	72.2	inactive
Nckap5 (GeneID 210356)	3	67.4	57.5	inactive
Nckap5 (GeneID 210356)	4	100	58.9	inactive
Nckap5 (GeneID 210356)	5	88.9	88.7	inactive
Nckap5 (GeneID 210356)	6	125	96.2	active
Plcxd1 (GeneID 403178)	1	95.4	76.4	inactive
Plcxd1 (GeneID 403178)	2	75.7	72.9	inactive
Plcxd1 (GeneID 403178)	3	101	96.9	inactive
Stard8 (GeneID 236920)	1	100	55	inactive
Stard8 (GeneID 236920)	2	80.9	72.8	inactive
Stard8 (GeneID 236920)	3	93	85.1	inactive
Slc29a2 (GeneID 13340)	1	63.5	84.1	inactive
Slc29a2 (GeneID 13340)	2	73.3	91.5	inactive
Slc29a2 (GeneID 13340)	3	111	104	inactive
Dhrs11 (GeneID 192970)	1	75.5	73.7	inactive
Dhrs11 (GeneID 192970)	2	105	107	inactive
Dhrs11 (GeneID 192970)	3	71.4	81.7	inactive
Kif1c (GeneID 16562)	1	45.4	36.7	inactive
Kif1c (GeneID 16562)	2	86.7	117	inactive
Siglec1 (GeneID 20612)	1	81.9	68.3	inactive
Siglec1 (GeneID 20612)	2	90.5	82.9	inactive
Dhcr7 (GeneID 13360)	1	84.1	101	inactive
Dhcr7 (GeneID 13360)	2	88	77.8	inactive
Dhcr7 (GeneID 13360)	3	90.6	42.5	inactive
Ank1 (GeneID 11733)	1	94.6	59.3	inactive
Ank1 (GeneID 11733)	2	72.8	72.2	inactive
Clcn4 (GeneID 12727)	1	74.6	114	inactive
Clcn4 (GeneID 12727)	2	68.1	103	inactive
Clcn4 (GeneID 12727)	3	40.3	58.4	inactive
Or4d1 (GeneID 258407)	1	46.9	36.7	inactive
Or4d1 (GeneID 258407)	2	82.4	79.5	inactive
Or4d1 (GeneID 258407)	3	81.9	98.3	inactive
Ncoa7 (GeneID 211329)	1	221	98.4	active
Ncoa7 (GeneID 211329)	2	94	74.7	inactive
Ncoa7 (GeneID 211329)	3	157	133	active
Mtif2 (GeneID 76784)	1	74.5	55.1	inactive
Mtif2 (GeneID 76784)	2	44	58.2	inactive
Mtif2 (GeneID 76784)	3	109	60.8	inactive
Med31 (GeneID 67279)	1	62.3	76.7	inactive
Med31 (GeneID 67279)	2	55.1	73.5	inactive
Med31 (GeneID 67279)	3	57.4	65.5	inactive
Pdha2 (GeneID 18598)	1	82.1	79.4	inactive
Pdha2 (GeneID 18598)	2	83.7	83.3	inactive
Pdha2 (GeneID 18598)	3	115	112	inactive
Abhd1 (GeneID 57742)	1	89.9	73.4	inactive
Abhd1 (GeneID 57742)	2	67.6	61.7	inactive
Abhd1 (GeneID 57742)	3	119	102	inactive
Notch1 (GeneID 18128)	1	112	72.8	inactive
Notch1 (GeneID 18128)	2	87.9	61.3	inactive
Notch1 (GeneID 18128)	3	116	143	inactive
Bmp7 (GeneID 12162)	1	95.9	99.2	inactive
Bmp7 (GeneID 12162)	2	79.3	89.9	inactive
Tcp11 (GeneID 21463)	1	35.7	25.2	inactive
Tcp11 (GeneID 21463)	2	91.4	85.5	inactive
Tcp11 (GeneID 21463)	3	62.1	72.8	inactive
